Structures can show the parent of a compound that is named as a salt. The list shows a part of the results. Most values lie at the level of the controls, where differences are scatter.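 Melting temperature was read by differential scanning fluorimetry in a single-replicate pilot screen of a library of approved drugs and clinical or known-target compounds. Compounds raising the melting point by at least 2 °C were the top stabilizing hits, and negative shifts mean destabilization.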 *1 amine or outer side, *2 acyl side, *3 side chain or, on linkers, in order; H or OH if unused. Where a SMILES comes first, the peptide text is derived from it. Bridges are numbered along the chain shown (N, C = ends). [ ]: non-standard residue; d: D form. The star is where a group is joined. hTyr(3S-OH,4S-OH,3'-OSO3H) = N[C@H](C(=O)O)[C@H](O)[C@@H](O)c1ccc(O)c(OS(=O)(=O)O)c1; Orn(4R-OH,5R-OH) = O=C([C@H](C[C@@H](O)[C@@H](O)N[*:3])N[*:1])[*:2]; Pro(3S-OH,4S-Me) = C[C@H]1CN[C@H](C(=O)O)[C@H]1O; X2 = CCCCCOc1ccc(-c2cc(-c3ccc(C(=O)*)cc3)no2)cc1; Gln(3R-OH) = NC(=O)C[C@@H](O)[C@H](N)C(=O)O; Hyp = O=C(O)[C@@H]1C[C@@H](O)CN1

The subject of this experiment is SARS-CoV-2 main protease (Mpro, nsp5). Put plainly: thermal shift ΔTm of Mpro relative to plate average Tm; higher = stronger thermal stabilization of Mpro (binding). As to conditions: 10 µM; protein concentration 1 µM.
On to `CC(C)c1cc(-c2n[nH]c(=O)n2-c2ccc3c(ccn3C)c2)c(O)cc1O` [Ganetespib (STA-9090)], for which the “thermal shift ΔTm of Mpro” value is -0.234 °C. Take `COc1ccc(-c2ccc3ncc4c(c3c2)n(-c2ccc(N3CCNCC3)c(C(F)(F)F)c2)c(=O)n4C)cn1`: the “thermal shift ΔTm of Mpro” value was -0.186 °C. Next, `C=CC(=O)Nc1cccc(Nc2nc(Nc3ccc(Oc4ccnc(C(=O)NC)c4)cc3)ncc2F)c1`: 0.46 °C; `CCCSc1nc(N[C@@H]2C[C@H]2c2ccc(F)c(F)c2)c2nnn([C@@H]3C[C@H](OCCO)[C@@H](O)[C@H]3O)c2n1` [Ticagrelor]: 0.0175 °C.

For the molecule `C=C1C[C@@]2(O)O[C@@]3(C[C@H]2C(C)C)[C@@H](C)CC[C@@H]13` [Curcumol], the “thermal shift ΔTm of Mpro” value was -0.0043 °C. Next, `Cc1cc(C)c(-c2csc(NC(=O)c3ccccc3)n2)c(C)c1`: -0.072 °C. Next, `O=C(O)COCCN1CCN(C(c2ccccc2)c2ccc(Cl)cc2)CC1` (stereo unspecified) [Cetirizine DiHCl]: 0.289 °C. For the molecule `C[C@]12CC[C@H](O)C[C@H]1CC[C@@H]1[C@@H]2CC[C@]2(C)[C@@](O)(c3ccoc3)CC[C@]12O` [Rostafuroxin], the “thermal shift ΔTm of Mpro” value worked out at 0.0856 °C. For `CN1C[C@@H]2C[C@H]1CN2c1cc2c(cc1F)c(=O)c(C(=O)O)cn2C1CC1` [Danofloxacin mesylate] the value was 0.185 °C; for `N[C@@H](Cc1c[nH]c2ccc(O)cc12)C(=O)O` [5-hydroxytryptophan (5-HTP)], -0.519 °C; for `O=C(O)Cc1nn(Cc2ccc(Br)cc2F)c(=O)c2ccccc12` [Ponalrestat], -0.0151 °C. In the case of `CC(=O)Nc1nc2c(Oc3cc(-c4ccc(C(F)(F)F)cc4)ncn3)cccc2s1`, the “thermal shift ΔTm of Mpro” value is -0.00238 °C.

As for `O=C(O)c1cc(C(F)(F)F)ccc1N1CC[C@H](OCc2ccccn2)C1`, the “thermal shift ΔTm of Mpro” value is -0.3 °C. Next, `CC(C)n1nc(-c2ccc3oc(N)nc3c2)c2c(N)ncnc21`: -0.0724 °C; `O=C(NO)c1cccc(C(=O)NCCc2ccccc2)c1`: -0.23 °C. With `Nc1ccc(/C=C/C(=O)NCc2cc3cc(-c4ccc(C(=O)N5CCC(F)(F)CC5)cc4)cc(-c4ccc(F)cc4)c3o2)cn1`, the “thermal shift ΔTm of Mpro” value stood at 0.137 °C. Regarding `Cc1[nH]c2ccccc2c1C1=C(NCCc2ccc(F)cc2)C(=O)N(C)C1=O`, the “thermal shift ΔTm of Mpro” value is -0.28 °C. Next, `NC(=O)c1nc(F)cnc1O` [Favipiravir]: 0.0849 °C. For `N=C(N)Nc1ccc(C(=O)Oc2ccc3cc(C(=N)N)ccc3c2)cc1` [Nafamostat Mesylate] the value was 0.189 °C. Next, `COc1cc2nc(N(C)CCCNC(=O)C3CCCO3)nc(N)c2cc1OC` (stereo unspecified) [Alfuzosin HCl]: 0.0827 °C; `Oc1ccc2ccccc2c1SSc1c(O)ccc2ccccc12`: 0.443 °C; `Clc1ccc(Cn2c(CN3CCCC3)nc3ccccc32)cc1` [Clemizole]: 0.0651 °C.

In the case of `CCCCc1nc2cc(/C=C/C(=O)NO)ccc2n1CCN(CC)CC` [Pracinostat (SB939)], the “thermal shift ΔTm of Mpro” value was 0.578 °C. As for `O=C(O)/C=C/c1ccc(O)c(O)c1` [Caffeic Acid], the “thermal shift ΔTm of Mpro” value was -0.469 °C. Consider `CC1(C)CC(=O)c2c(C(F)(F)F)nn(-c3ccc(C(N)=O)c(N[C@H]4CC[C@H](O)CC4)c3)c2C1`, for which the “thermal shift ΔTm of Mpro” value was 0.07 °C. For `Cc1ncc(CO)c(C(=O)O)c1O` [4-Pyridoxic Acid] the value was 0.108 °C. Next, `CC(=O)O[C@]1(C(C)=O)CC[C@H]2[C@@H]3CCC4=CC(=O)CCC4=C3[C@@H](c3ccc(N(C)C)cc3)C[C@@]21C` [Ulipristal acetate]: 0.288 °C; `C[N+](C)(C)CCCCCCCCCC[N+](C)(C)C` [Decamethonium Bromide]: 0.177 °C; `CCCCCOc1ccc(-c2cc(-c3ccc(C(=O)N[C@H]4C[C@@H](O)[C@@H](O)NC(=O)[C@@H]5[C@@H](O)[C@@H](C)CN5C(=O)[C@H]([C@H](O)CC(N)=O)NC(=O)[C@H]([C@H](O)[C@@H](O)c5ccc(O)c(OS(=O)(=O)O)c5)NC(=O)[C@@H]5C[C@@H](O)CN5C(=O)[C@H]([C@@H](C)O)NC4=O)cc3)no2)cc1` [Micafungin Sodium] (X2-[Orn(4R-OH,5R-OH)]T[Hyp][hTyr(3S-OH,4S-OH,3'-OSO3H)][Gln(3R-OH)][Pro(3S-OH,4S-Me)]; lactam 1-C): -0.378 °C. Next, `N#CSc1cc(SC#N)c(N)nc1N`: -2.11 °C; `CC1(C)CCC(C)(C)c2cc(NC(=O)c3ccc(C(=O)O)cc3)ccc21` [Tamibarotene]: -0.0461 °C; `N[C@@H](Cc1cc(I)c(Oc2cc(I)c(O)c(I)c2)c(I)c1)C(=O)O` [L-Thyroxine]: 0.103 °C.

For the molecule `O=C(O)C(O)Cc1ccc(O)c(O)c1` (stereo unspecified) [Sodium Danshensu], the “thermal shift ΔTm of Mpro” value was -0.881 °C. For the molecule `COc1cc(C(=O)O)ccc1NC(=O)[C@@H]1N[C@@H](CC(C)(C)C)[C@](C#N)(c2ccc(Cl)cc2F)[C@H]1c1cccc(Cl)c1F` [Idasanutlin (RG-7388)], the “thermal shift ΔTm of Mpro” value was -0.217 °C.

Regarding `N=C(N)NC(=O)Cc1c(Cl)cccc1Cl` [Guanfacine hydrochloride], the “thermal shift ΔTm of Mpro” value was 0.332 °C. For `OCC(O)COc1ccc(Cl)cc1` (stereo unspecified) [Chlorphenesin] the value was 0.252 °C.

The record behind these values is the supplement of paper PMC8166895.
